Measurements taken from article PMC11170954, “Effect of Peptide–Polymer Host–Guest Electrostatic Interactions on Self-Assembling Peptide Hydrogels Structural and Mechanical Properties and Polymer Diffusivity” (Biomacromolecules, 2024).
Ends that are not written are not given here.

Assay: Oscillatory shear rheology and injectability
Type: physicochemical
Details: 0.2% strain, 1 Hz, 8–20 mg mL^–1, pH 7

| Sequence | exponent of power law G′ ∝ C^n (storage modulus vs peptide concentration) |
| --- | --- |
| EFKFEFKFE [E(FKFE)2] | 2.3 |
| KFEFKFEFK [K(FEFK)2] | 3.3 |
